The values that follow come from patent US20240261333A1, “NOVEL TARGETS FOR ENHANCING ANTI-TUMOR IMMUNITY” (THE BROAD INSTITUTE, INC., priority 2021, published 2024).

The chains behind the UniProt entries cited, without tags or fusion partners. Residues count along the entry.
UniProt Q92692, residues 32-538: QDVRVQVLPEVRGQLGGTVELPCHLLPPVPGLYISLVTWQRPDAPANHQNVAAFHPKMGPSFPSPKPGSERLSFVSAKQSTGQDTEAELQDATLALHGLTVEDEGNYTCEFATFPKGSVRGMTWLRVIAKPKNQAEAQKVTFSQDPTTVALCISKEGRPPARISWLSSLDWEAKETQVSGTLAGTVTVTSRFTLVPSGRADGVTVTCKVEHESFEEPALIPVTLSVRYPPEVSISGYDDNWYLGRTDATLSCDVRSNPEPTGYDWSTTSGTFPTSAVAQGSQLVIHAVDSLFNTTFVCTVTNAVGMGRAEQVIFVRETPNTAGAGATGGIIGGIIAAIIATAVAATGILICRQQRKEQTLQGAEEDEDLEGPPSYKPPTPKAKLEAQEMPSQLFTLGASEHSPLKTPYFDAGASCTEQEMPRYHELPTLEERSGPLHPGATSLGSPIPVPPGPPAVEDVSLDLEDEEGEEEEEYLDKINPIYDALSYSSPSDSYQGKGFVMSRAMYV
UniProt Q9NY97: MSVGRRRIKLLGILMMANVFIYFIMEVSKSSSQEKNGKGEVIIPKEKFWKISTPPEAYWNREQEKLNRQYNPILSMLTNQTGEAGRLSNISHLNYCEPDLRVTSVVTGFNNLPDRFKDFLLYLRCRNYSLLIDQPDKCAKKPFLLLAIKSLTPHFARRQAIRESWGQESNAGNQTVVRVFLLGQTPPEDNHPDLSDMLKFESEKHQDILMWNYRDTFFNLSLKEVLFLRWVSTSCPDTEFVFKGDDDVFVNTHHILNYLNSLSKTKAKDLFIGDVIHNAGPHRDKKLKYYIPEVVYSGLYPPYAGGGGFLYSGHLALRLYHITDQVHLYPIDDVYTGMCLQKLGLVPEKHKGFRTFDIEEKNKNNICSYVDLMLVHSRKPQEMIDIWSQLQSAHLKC

Results are given in words; binding and its absence hold for the method and conditions named. Binding seen in cells or lysates may run through a third protein. Some results given as binding are weak or reduced against the parent protein; the word gives no strength.

The target of the assay is NECTIN2, endogenous in A375 melanoma cells (human) (UniProt Q92692). The assay is described as follows: co-IP of FLAG tagged B3GNT2 from A375 lysate, Western blot. In general terms: A western blot detects proteins with antibodies after separation by electrophoresis.

As to “FLAG tagged B3GNT2 (N- or C-terminal FLAG tag) (from UniProt Q9NY97 1-397) (enzyme)”, the binding entry is recorded as “binds”.
